Test results taken from PMC11750563.
These are yes or no findings as the source states them, for the method shown. Binding seen in cells or lysates may run through a third protein. Some entries that bind do so weakly or less than the wild type. Blank lines part the entries; values can stand above or below the binder they belong to.

Chains of the proteins cited; added tags and fusions are not shown.
UniProt Q08J23: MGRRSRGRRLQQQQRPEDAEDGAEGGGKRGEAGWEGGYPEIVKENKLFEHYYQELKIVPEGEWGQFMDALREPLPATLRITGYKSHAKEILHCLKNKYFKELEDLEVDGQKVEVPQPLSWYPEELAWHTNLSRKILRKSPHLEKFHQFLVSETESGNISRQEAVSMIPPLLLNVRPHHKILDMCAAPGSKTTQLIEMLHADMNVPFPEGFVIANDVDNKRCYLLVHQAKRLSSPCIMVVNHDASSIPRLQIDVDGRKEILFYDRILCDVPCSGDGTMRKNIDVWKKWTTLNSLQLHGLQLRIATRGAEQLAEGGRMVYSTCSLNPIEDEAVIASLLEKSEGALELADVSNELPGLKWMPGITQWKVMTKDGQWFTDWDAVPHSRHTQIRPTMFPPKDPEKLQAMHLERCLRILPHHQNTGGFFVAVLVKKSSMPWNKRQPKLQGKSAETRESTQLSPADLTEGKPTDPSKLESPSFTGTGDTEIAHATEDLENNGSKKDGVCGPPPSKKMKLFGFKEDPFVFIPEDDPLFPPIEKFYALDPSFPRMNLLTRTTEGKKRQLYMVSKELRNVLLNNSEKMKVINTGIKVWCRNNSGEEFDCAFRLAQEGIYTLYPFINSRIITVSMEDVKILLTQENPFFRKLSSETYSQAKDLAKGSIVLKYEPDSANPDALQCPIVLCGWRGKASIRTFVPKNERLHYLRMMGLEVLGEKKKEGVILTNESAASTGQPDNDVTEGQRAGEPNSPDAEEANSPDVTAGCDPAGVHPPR

Target: Flag-NSUN2 (NOP2/Sun domain family member 2) (UniProt Q08J23)
Assay: co-IP; Flag-tagged bait from transfected HEK293 lysate on Flag-M2 beads, 2 h at 4 °C; IP buffer 150 mM NaCl, 50 mM Tris-HCl pH 7.5, 1 % NP-40, 5 mM EDTA; endogenous partner detected by western blotting; cells with or without 10 or 20 mM lactate for 3 h (interaction strengthened by lactate)

binding: binds
B1: N-α-acetyltransferase 10 (NAA10), endogenous (enzyme, UniProt P41227 1-235)
chain: MNIRNARPEDLMNMQHCNLLCLPENYQMKYYFYHGLSWPQLSYIAEDENGKIVGYVLAKMEEDPDDVPHGHITSLAVKRSHRRLGLAQKLMDQASRAMIENFNAKYVSLHVRKSNRAALHLYSNTLNFQISEVEPKYYADGEDAYAMKRDLTQMADELRRHLELKEKGRHVVLGAIENKVESKGNSPPSSGEACREEKGLAAEDSGGDSKDLSEVSETTESTDVKDSSEASDSAS

binding: no binding
B2: glutamate-cysteine ligase catalytic subunit (GCLC), endogenous (enzyme, UniProt P48506 1-637)
chain: MGLLSQGSPLSWEETKRHADHVRRHGILQFLHIYHAVKDRHKDVLKWGDEVEYMLVSFDHENKKVRLVLSGEKVLETLQEKGERTNPNHPTLWRPEYGSYMIEGTPGQPYGGTMSEFNTVEANMRKRRKEATSILEENQALCTITSFPRLGCPGFTLPEVKPNPVEGGASKSLFFPDEAINKHPRFSTLTRNIRHRRGEKVVINVPIFKDKNTPSPFIETFTEDDEASRASKPDHIYMDAMGFGMGNCCLQVTFQACSISEARYLYDQLATICPIVMALSAASPFYRGYVSDIDCRWGVISASVDDRTREERGLEPLKNNNYRISKSRYDSIDSYLSKCGEKYNDIDLTIDKEIYEQLLQEGIDHLLAQHVAHLFIRDPLTLFEEKIHLDDANESDHFENIQSTNWQTMRFKPPPPNSDIGWRVEFRPMEVQLTDFENSAYVVFVVLLTRVILSYKLDFLIPLSKVDENMKVAQKRDAVLQGMFYFRKDICKGGNAVVDGCGKAQNSTELAAEEYTLMSIDTIINGKEGVFPGLIPILNSYLENMEVDVDTRCSILNYLKLIKKRASGELMTVARWMREFIANHPDYKQDSVITDEMNYSLILKCNQIANELCECPELLGSAFRKVKYSGSKTDSSN
